Values of other authors as cited in patent US20250283018A1, “TOILET RIM BLOCKS WITH SCENT CHANGE” (SYMRISE AG, priority 2021, published 2025).
Read-outs that look alike come from different tables or passages of the source.

## CCCCCCCCCO [ALKOHOL C 9]
Table 1, components of MARINA
  Bp. [° C.]: 213.3 °C
Table 2, components of PEACH
  Bp. [° C.]: 213.3 °C
